Source: paper PMC11925803
These are yes or no findings as the source states them, for the method shown. Binding seen in cells or lysates may run through a third protein. Some results given as binding are weak or reduced against the parent protein; the word gives no strength.

By UniProt entry, the sequences of proteins in these tests, tags left out.
UniProt Q13950: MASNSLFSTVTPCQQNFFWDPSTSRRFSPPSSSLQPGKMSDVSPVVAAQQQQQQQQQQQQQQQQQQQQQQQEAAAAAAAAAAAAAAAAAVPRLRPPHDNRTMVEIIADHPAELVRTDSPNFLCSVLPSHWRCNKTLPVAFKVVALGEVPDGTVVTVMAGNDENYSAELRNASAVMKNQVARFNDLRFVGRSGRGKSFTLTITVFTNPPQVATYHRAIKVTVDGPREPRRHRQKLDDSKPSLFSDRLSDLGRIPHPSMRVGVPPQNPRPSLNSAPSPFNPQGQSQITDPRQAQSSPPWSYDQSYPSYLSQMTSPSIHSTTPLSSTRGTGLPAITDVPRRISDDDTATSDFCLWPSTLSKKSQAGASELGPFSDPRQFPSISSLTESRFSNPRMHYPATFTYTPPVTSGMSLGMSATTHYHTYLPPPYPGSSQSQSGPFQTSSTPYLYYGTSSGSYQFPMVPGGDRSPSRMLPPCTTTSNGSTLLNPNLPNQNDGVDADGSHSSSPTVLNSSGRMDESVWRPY
UniProt Q9NRG4: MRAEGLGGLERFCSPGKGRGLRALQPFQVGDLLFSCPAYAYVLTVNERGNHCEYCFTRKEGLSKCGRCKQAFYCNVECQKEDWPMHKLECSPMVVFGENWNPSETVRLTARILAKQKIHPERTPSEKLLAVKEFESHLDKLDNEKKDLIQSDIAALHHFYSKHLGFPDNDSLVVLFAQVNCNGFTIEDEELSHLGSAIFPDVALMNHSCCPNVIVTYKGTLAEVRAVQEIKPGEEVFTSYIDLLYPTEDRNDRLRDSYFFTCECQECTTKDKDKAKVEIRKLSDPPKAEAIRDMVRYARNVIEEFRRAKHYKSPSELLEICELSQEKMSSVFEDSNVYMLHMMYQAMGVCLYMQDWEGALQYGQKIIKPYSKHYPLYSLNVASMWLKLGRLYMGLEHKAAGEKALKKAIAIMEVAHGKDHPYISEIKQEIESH

Target: Runt-related transcription factor-2 (RUNX2) (UniProt Q13950)
Test: co-IP; co-immunoprecipitation with endogenous and with overexpressed Smyd2; cells, bait and conditions not stated

Row | binding | Substance
1 | binds | SMYD2 (SET and MYND domain-containing protein 2), endogenous (from UniProt Q9NRG4 1-433) (enzyme)
2 | binds | SMYD2 (SET and MYND domain-containing protein 2), overexpressed (from UniProt Q9NRG4 1-433) (enzyme)
